Data on 2 substances can be found in paper PMC3656109.

Chains of the proteins cited; added tags and fusions are not shown. Residues count along the entry.
UniProt P29317, residues 24-976: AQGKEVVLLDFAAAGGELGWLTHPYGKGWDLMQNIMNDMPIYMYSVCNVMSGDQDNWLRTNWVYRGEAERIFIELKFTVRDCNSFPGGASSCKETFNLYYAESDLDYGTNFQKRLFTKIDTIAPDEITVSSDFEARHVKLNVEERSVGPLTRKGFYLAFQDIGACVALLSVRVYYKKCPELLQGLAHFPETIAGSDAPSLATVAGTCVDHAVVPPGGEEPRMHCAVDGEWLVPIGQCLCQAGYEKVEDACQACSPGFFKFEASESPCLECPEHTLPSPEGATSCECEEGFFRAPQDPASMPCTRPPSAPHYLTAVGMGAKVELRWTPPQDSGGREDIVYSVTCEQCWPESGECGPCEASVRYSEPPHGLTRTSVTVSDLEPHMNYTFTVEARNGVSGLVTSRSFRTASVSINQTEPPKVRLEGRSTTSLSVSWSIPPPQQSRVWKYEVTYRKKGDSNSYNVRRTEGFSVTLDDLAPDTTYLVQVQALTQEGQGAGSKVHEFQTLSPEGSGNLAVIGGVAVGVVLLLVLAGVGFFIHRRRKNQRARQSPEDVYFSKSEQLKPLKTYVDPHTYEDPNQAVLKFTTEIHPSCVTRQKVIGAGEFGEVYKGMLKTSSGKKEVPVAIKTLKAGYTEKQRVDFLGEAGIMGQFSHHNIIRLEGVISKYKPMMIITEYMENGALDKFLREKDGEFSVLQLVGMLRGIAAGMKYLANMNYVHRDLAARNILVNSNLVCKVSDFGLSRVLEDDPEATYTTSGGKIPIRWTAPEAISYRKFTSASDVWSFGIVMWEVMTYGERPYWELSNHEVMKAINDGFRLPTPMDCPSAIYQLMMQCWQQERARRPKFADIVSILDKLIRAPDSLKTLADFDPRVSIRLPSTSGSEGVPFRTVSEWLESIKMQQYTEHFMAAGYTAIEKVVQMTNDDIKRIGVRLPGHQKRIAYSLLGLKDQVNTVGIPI
UniProt P54764, residues 20-986: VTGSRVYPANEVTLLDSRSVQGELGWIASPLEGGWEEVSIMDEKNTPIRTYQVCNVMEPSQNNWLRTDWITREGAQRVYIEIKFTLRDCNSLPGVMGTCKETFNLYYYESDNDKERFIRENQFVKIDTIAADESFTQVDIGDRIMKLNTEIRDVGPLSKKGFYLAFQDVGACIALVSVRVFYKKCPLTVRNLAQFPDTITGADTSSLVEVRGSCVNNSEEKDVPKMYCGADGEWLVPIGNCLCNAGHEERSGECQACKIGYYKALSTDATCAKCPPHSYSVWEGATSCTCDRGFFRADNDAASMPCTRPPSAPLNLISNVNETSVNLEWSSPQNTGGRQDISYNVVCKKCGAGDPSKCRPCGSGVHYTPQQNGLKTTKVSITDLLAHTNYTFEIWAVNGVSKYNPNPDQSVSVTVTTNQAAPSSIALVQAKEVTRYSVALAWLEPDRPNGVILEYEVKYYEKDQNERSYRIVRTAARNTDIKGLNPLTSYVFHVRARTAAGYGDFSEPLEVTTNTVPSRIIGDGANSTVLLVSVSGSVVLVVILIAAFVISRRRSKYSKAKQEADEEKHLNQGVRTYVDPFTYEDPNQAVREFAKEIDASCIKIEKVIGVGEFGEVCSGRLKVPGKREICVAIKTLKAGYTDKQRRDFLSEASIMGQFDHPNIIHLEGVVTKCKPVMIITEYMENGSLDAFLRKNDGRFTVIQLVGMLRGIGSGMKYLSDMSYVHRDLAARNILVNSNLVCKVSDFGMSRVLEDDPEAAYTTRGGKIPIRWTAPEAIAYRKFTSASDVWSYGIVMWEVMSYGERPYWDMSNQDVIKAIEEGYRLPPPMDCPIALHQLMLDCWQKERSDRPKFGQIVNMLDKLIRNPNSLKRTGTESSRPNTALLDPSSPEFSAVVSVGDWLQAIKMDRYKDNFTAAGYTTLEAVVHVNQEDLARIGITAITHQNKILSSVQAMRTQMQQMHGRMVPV

Results are given in words; binding and its absence hold for the method and conditions named. In cells and extracts the contact can be indirect. Some binding calls cover weakened binding; strength is not graded here. Sequences can lack the tags named with a protein.

What all share (assay): pull-down; lysates of 293T cells transfected with myc-tagged Eph constructs immunoprecipitated with 1 µg of recombinant Ephrin-Fc protein; washed three times with lysis buffer; Western blot; only the target purified
In assay [1] the target is T1, EphrinA3-Fc (not stated (human or murine)) (UniProt P52797).
T1 sequence: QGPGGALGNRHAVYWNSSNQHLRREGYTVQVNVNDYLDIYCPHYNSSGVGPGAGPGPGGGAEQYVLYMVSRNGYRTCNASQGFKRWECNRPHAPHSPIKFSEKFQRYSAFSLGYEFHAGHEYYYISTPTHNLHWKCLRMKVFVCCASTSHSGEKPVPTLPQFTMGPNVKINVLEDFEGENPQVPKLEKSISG

In assay [2] the target is T2, EphrinA4-Fc (not stated (human or murine)) (UniProt P52798).
T2 sequence: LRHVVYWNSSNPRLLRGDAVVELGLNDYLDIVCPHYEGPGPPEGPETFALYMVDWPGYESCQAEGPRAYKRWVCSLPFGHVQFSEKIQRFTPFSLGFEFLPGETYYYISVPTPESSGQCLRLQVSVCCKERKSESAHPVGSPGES

Assay [3] concerns the target T3, EphrinA5-Fc (not stated (human or murine)) (UniProt P52803).
T3 sequence: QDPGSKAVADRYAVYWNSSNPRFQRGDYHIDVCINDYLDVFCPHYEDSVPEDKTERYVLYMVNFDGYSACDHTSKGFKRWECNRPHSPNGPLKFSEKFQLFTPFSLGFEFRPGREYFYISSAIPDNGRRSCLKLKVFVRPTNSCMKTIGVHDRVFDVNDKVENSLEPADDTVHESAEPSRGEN

For the substance “EphA2, full length, C-terminal myc epitope tag (from UniProt P29317 24-976) (receptor)”, the results for the binding result in assay [1], in assay [2] and in assay [3] were “binds”, “binds” and “binds weakly”, respectively.
Regarding “EphA4, full length, C-terminal myc epitope tag (from UniProt P54764 20-986) (receptor)”, the binding result in assay [2] and in assay [3] was “binds” throughout.
